Some results were stated once for a whole list of compounds, not compound by compound.
biological target: T1, glucocorticoid receptor (Homo sapiens, UniProt P04150); assay: Ligand binding assay (GR BIND); conditions: displacement of 3H-DEX, MDA-MB-453 cell lysate, DEX as reference
T1 construct: endogenous in cells
T1 sequence (P04150 1-777): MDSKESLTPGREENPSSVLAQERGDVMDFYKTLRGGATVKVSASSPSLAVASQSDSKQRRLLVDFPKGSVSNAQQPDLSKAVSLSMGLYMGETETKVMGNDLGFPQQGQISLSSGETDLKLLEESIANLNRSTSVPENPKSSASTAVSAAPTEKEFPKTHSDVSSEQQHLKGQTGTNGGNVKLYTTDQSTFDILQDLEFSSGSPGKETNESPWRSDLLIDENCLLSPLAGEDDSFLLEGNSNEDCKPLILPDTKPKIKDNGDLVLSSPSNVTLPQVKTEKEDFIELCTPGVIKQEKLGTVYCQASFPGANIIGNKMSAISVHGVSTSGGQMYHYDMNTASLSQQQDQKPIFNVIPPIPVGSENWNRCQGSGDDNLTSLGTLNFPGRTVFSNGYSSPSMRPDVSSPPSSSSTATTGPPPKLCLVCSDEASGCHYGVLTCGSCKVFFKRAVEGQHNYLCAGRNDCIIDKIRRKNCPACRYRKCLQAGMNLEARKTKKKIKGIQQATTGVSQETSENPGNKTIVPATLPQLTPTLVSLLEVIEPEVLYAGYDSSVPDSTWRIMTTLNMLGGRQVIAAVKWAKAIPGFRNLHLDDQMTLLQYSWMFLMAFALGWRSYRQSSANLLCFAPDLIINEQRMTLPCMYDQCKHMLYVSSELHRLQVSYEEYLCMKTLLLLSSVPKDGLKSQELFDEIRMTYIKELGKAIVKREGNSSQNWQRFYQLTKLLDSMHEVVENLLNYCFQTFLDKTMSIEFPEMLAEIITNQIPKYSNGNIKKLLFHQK
Outline: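 Displacement of tritiated dexamethasone (6 nM trace solution) from receptor in cell supernatant was measured after overnight incubation at 4 °C in molybdate-containing TEGM, pH 7.2, 2% ethanol. Hydroxylapatite pulled down the receptor–ligand complex for filter washing and scintillation counting, with dexamethasone as reference.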

| SMILES | IC50 [nM] |
| --- | --- |
| C[C@]12Cc3cnn(-c4ccc(F)cc4)c3C=C1CC[C@@H]2CN(Cc1cccnn1)S(=O)(=O)CC(F)(F)F [Example 132, 2,2,2-trifluoro-N-{[(4αR,5S)-1-(4-fluorophenyl)-4α-methyl-1,4,4α,5,6,7-hexahydrocyclopenta[f]indazol-5-yl]methyl}-N-(pyridazin-3-ylmethyl)ethanesulfonamide] | < 1000 |
| C[C@]12Cc3cnn(-c4ccc(F)cc4)c3C=C1CC[C@@H]2CN(CC(O)C(F)F)S(=O)(=O)CC(F)(F)F (stereo partly drawn) [Example 133, N-(3,3-difluoro-2-hydroxypropyl)-2,2,2-trifluoro-N-{[(4αR,5S)-1-(4-fluorophenyl)-4α-methyl-1,4,4α,5,6,7-hexahydrocyclopenta[f]indazol-5-yl]methyl}ethanesulfonamide] | < 1000 |
| C[C@]12Cc3cnn(-c4ccc(F)cc4)c3C=C1CC[C@@H]2CN(CC(OS(=O)(=O)CC(F)(F)F)C(F)F)S(=O)(=O)CC(F)(F)F (stereo partly drawn) [Example 134, 2,2-difluoro-1-({{[(4αR,5S)-1-(4-fluorophenyl)-4α-methyl-1,4,4α,5,6,7-hexahydrocyclopenta[f]indazol-5-yl]methyl}[(2,2,2-trifluoroethyl)sulfonyl]amino}methyl)ethyl 2,2,2-trifluoroethanesulfonate] | < 1000 |
| C[C@]12Cc3cnn(-c4ccc(F)cc4)c3C=C1CC[C@@H]2CN(CC1(O)CC1)S(=O)(=O)CC(F)(F)F [Example 135, 2,2,2-trifluoro-N-{[(4αR,5S)-1-(4-fluorophenyl)-4α-methyl-1,4,4α,5,6,7-hexahydrocyclopenta[f]indazol-5-yl]methyl}-N-[(1-hydroxycyclopropyl)methyl]ethanesulfonamide] | < 1000 |
| C[C@]12Cc3cnn(-c4ccc(F)cc4)c3C=C1CC[C@@H]2CN(CC1(OS(=O)(=O)CC(F)(F)F)CC1)S(=O)(=O)CC(F)(F)F [Example 136, 1-({{[(4αR,5S)-1-(4-fluorophenyl)-4α-methyl-1,4,4α,5,6,7-hexahydrocyclopenta[f]indazol-5-yl]methyl}[(2,2,2-trifluoroethyl)sulfonyl]amino}methyl)cyclopropyl 2,2,2-trifluoroethanesulfonate] | < 1000 |
| C[C@]12Cc3cnn(-c4ccccc4)c3C=C1CC[C@@H]2CN(CCc1ccccc1F)S(=O)(=O)CC(F)(F)F [Example 137, 2,2,2-trifluoro-N-[2-(2-fluorophenyl)ethyl]-N-{[(4αR,5S)-4α-methyl-1-phenyl-1,4,4α,5,6,7-hexahydrocyclopenta[f]indazol-5-yl]methyl}ethanesulfonamide] | < 1000 |
| C[C@]12Cc3cnn(-c4ccccc4)c3C=C1CC[C@@H]2CN(CCc1ccccn1)S(=O)(=O)CC(F)(F)F [Example 138, 2,2,2-trifluoro-N-{[(4αR,5S)-4α-methyl-1-phenyl-1,4,4α,5,6,7-hexahydrocyclopenta[f]indazol-5-yl]methyl}-N-(2-pyridin-2-ylethyl)ethanesulfonamide] | < 1000 |
| COc1ccccc1CCN(C[C@H]1CCC2=Cc3c(cnn3-c3ccccc3)C[C@@]21C)S(=O)(=O)CC(F)(F)F [Example 139, 2,2,2-trifluoro-N-[2-(2-methoxyphenyl)ethyl]-N-{[(4αR,5S)-4α-methyl-1-phenyl-1,4,4α,5,6,7-hexahydrocyclopenta[f]indazol-5-yl]methyl}ethanesulfonamide] | < 1000 |
| C[C@]12Cc3cnn(-c4ccccc4)c3C=C1CC[C@@H]2CN(CCc1ccccc1O)S(=O)(=O)Cc1cccnc1 [Example 141, N-[2-(2-hydroxyphenyl)ethyl]-N-{[(4αR,5S)-4α-methyl-1-phenyl-1,4,4α,5,6,7-hexahydrocyclopenta[f]indazol-5-yl]methyl}-1-pyridin-3-ylmethanesulfonamide] | < 1000 |
| C[C@]12Cc3cnn(-c4ccc(F)cc4)c3C=C1CC[C@@H]2CN(CC(O)c1ccccn1)S(=O)(=O)CC(F)(F)F (stereo partly drawn) [Example 142, 2,2,2-trifluoro-N-{[(4αR,5S)-1-(4-fluorophenyl)-4α-methyl-1,4,4α,5,6,7-hexahydrocyclopenta[f]indazol-5-yl]methyl}-N-(2-hydroxy-2-pyridin-2-ylethyl)ethanesulfonamide] | < 1000 |
| C[C@]12Cc3cnn(-c4ccc(F)cc4)c3C=C1CC[C@@H]2CN(CC(O)c1cccnc1)S(=O)(=O)CC(F)(F)F (stereo partly drawn) [Example 143, 2,2,2-trifluoro-N-{[(4αR,5S)-1-(4-fluorophenyl)-4α-methyl-1,4,4α,5,6,7-hexahydrocyclopenta[f]indazol-5-yl]methyl}-N-(2-hydroxy-2-pyridin-3-ylethyl)ethanesulfonamide] | < 1000 |
| C[C@]12Cc3cnn(-c4ccc(F)cc4)c3C=C1CC[C@@H]2CN(CC(O)c1ccncc1)S(=O)(=O)CC(F)(F)F (stereo partly drawn) [Example 144, 2,2,2-trifluoro-N-{[(4αR,5S)-1-(4-fluorophenyl)-4α-methyl-1,4,4α,5,6,7-hexahydrocyclopenta[f]indazol-5-yl]methyl}-N-(2-hydroxy-2-pyridin-4-ylethyl)ethanesulfonamide] | < 1000 |
| C[C@]12Cc3cnn(-c4ccc(F)cc4)c3C=C1CC[C@@H]2CN(CC(OS(=O)(=O)CC(F)(F)F)c1ccccn1)S(=O)(=O)CC(F)(F)F (stereo partly drawn) [Example 145, 2-{{[(4αR,5S)-1-(4-fluorophenyl)-4α-methyl-1,4,4α,5,6,7-hexahydrocyclopenta[f]indazol-5-yl]methyl}[(2,2,2-trifluoroethyl)sulfonyl]amino}-1-pyridin-2-ylethyl 2,2,2-trifluoroethanesulfonate] | < 1000 |
| CC(CN(C[C@H]1CCC2=Cc3c(cnn3-c3ccc(F)cc3)C[C@@]21C)S(=O)(=O)CC(F)(F)F)c1cccnc1 (stereo partly drawn) [Example 146, 2,2,2-trifluoro-N-{[(4αR,5S)-1-(4-fluorophenyl)-4α-methyl-1,4,4α,5,6,7-hexahydrocyclopenta[f]indazol-5-yl]methyl}-N-(2-pyridin-3-ylpropyl)ethanesulfonamide] | < 1000 |
| C[C@]12Cc3cnn(-c4ccc(F)cc4)c3C=C1CC[C@@H]2CN(CCC(N)C(F)(F)F)S(=O)(=O)CC(F)(F)F (stereo partly drawn) [Example 147, N-(3-amino-4,4,4-trifluorobutyl)-2,2,2-trifluoro-N-{[(4aR,5S)-1-(4-fluorophenyl)-4α-methyl-1,4,4α,5,6,7-hexahydrocyclopenta[f]indazol-5-yl]methyl}ethanesulfonamide] | < 1000 |
| CCCS(=O)(=O)N(CC(O)C(F)(F)F)C[C@H]1CCC2=Cc3c(cnn3-c3ccc(F)cc3)C[C@@]21C (stereo partly drawn) [Example 148, N-{[(4αR,5S)-1-(4-fluorophenyl)-4α-methyl-1,4,4α,5,6,7-hexahydrocyclopenta[f]indazol-5-yl]methyl}-N-(3,3,3-trifluoro-2-hydroxypropyl)propane-1-sulfonamide] | < 1000 |
| C[C@]12Cc3cnn(-c4ccc(F)cc4)c3C=C1CC[C@@H]2CN(CC(O)C(F)(F)F)S(=O)(=O)Cc1cccnc1 (stereo partly drawn) [Example 149, N-{[(4αR,5S)-1-(4-fluorophenyl)-4α-methyl-1,4,4α,5,6,7-hexahydrocyclopenta[f]indazol-5-yl]methyl}-1-pyridin-3-yl-N-(3,3,3-trifluoro-2-hydroxypropyl)methanesulfonamide] | < 1000 |
| Cn1cc(S(=O)(=O)N(CCc2ccccn2)C[C@H]2CCC3=Cc4c(cnn4-c4ccc(F)cc4)C[C@@]32C)c(C(F)(F)F)n1 [Example 150, N-{[(4αR,5S)-1-(4-fluorophenyl)-4α-methyl-1,4,4α,5,6,7-hexahydrocyclopenta[f]indazol-5-yl]methyl}-1-methyl-N-(2-pyridin-2-ylethyl)-3-(trifluoromethyl)-1H-pyrazole-4-sulfonamide] | < 1000 |
| CCCS(=O)(=O)N(CCc1ccccn1)C[C@H]1CCC2=Cc3c(cnn3-c3ccc(F)cc3)C[C@@]21C [Example 151, N-{[(4αR,5S)-1-(4-fluorophenyl)-4α-methyl-1,4,4α,5,6,7-hexahydrocyclopenta[f]indazol-5-yl]methyl}-N-(2-pyridin-2-ylethyl)propane-1-sulfonamide] | < 1000 |
| C[C@]12Cc3cnn(-c4ccc(F)cc4)c3C=C1CC[C@@H]2CN(CCc1ccccn1)S(=O)(=O)CCN1C(=O)c2ccccc2C1=O [Example 152, 2-(1,3-dioxo-1,3-dihydro-2H-isoindol-2-yl)-N-{[(4αR,5S)-1-(4-fluorophenyl)-4α-methyl-1,4,4α,5,6,7-hexahydrocyclopenta[f]indazol-5-yl]methyl}-N-(2-pyridin-2-ylethyl)ethanesulfonamide] | < 1000 |
| C[C@]12Cc3cnn(-c4ccc(F)cc4)c3C=C1CC[C@@H]2CN(CCc1ccccn1)S(=O)(=O)Cc1ccccc1C(F)(F)F [Example 153, N-{[(4αR,5S)-1-(4-fluorophenyl)-4α-methyl-1,4,4α,5,6,7-hexahydrocyclopenta[f]indazol-5-yl]methyl}-N-(2-pyridin-2-ylethyl)-1-[2-(trifluoromethyl)phenyl]methanesulfonamide] | < 1000 |

From patent publication US8299048B2, “Hexahydrocyclopentyl[f]indazole sulfonamides and derivatives thereof as selective glucocorticoid receptor modulators” (Merck Sharp & Dohme Corp., priority 2008, dated 2012)
